Consider 3 substances from US20070232520A1.

Protein sequences, listed by entry. Tags and fused reporters are not part of them. Lines headed by an entry give the natural chain unless they say otherwise; changes in a name come on top. Residues count along the entry.
UniProt P19438: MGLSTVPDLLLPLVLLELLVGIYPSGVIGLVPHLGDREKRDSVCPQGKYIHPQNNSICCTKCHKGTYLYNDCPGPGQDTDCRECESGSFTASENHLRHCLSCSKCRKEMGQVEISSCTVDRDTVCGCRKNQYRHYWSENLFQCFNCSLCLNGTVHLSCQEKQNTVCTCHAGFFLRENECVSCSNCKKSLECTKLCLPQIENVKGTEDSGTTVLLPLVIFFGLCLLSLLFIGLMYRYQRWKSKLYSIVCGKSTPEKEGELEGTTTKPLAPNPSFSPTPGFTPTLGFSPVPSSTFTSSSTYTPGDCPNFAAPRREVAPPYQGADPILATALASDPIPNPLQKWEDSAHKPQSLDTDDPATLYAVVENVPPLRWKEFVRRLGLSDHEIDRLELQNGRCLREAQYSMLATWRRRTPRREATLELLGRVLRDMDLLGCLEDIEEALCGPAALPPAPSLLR
UniProt P20333, residues 23-461: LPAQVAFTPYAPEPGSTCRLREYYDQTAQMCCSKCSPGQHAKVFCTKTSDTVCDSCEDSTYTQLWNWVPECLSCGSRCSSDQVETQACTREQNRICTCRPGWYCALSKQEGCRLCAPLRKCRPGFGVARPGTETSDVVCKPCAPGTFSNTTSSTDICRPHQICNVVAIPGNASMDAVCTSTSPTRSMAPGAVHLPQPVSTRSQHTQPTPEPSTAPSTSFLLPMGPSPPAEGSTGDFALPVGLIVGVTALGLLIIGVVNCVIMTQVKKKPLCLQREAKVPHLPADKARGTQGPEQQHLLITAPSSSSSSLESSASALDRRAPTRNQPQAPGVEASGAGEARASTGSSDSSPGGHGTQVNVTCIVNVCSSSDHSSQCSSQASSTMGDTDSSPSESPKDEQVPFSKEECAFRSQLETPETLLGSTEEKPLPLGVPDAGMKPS
UniProt Q13200: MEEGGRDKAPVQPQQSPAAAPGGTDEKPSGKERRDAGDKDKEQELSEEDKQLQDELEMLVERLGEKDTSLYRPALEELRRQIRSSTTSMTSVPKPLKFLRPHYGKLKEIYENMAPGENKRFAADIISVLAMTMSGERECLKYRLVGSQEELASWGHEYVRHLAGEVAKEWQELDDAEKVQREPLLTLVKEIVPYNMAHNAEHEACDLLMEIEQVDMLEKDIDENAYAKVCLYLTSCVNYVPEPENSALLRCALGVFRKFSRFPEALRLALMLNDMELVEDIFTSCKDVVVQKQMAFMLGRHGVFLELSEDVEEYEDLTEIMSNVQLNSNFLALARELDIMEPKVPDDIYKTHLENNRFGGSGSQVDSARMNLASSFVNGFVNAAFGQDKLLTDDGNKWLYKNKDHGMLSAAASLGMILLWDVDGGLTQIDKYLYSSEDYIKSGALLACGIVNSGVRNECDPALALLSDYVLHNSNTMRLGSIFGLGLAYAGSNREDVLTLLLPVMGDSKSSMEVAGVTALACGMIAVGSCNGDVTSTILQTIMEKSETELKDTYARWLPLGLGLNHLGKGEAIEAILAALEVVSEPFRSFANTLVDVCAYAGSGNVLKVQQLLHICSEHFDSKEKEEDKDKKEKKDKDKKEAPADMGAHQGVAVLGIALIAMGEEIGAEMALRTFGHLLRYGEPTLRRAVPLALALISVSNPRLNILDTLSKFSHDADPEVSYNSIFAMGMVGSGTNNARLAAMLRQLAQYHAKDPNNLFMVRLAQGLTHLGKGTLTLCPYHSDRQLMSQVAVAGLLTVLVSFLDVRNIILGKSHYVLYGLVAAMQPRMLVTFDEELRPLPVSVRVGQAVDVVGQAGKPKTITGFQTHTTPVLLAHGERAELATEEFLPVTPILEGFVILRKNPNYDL
UniProt Q9NQT4: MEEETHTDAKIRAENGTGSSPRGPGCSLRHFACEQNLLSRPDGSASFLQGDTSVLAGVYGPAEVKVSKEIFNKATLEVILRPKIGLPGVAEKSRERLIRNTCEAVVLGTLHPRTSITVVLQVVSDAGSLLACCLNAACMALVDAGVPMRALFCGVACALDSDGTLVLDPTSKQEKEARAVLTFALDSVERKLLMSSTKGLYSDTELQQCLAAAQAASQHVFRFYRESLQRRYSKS

Assay [1] deals with GST-p55IC (glutathione S-transferase fusion with full-length p55-IC) (human) (UniProt P19438). Description: in vitro pull-down: 35S-labelled protein from HeLa lysate on GST fusion on glutathione-agarose beads, SDS-PAGE, autoradiography.
Assay [2] addresses GST-p55IC345 (GST fusion with p55-IC C-terminally truncated up to amino acid 345) (human) (UniProt P19438). Described as above.
Assay [3] concerns the target p75 (p75 TNF-R expressed in transfected HeLa cells) (UniProt P20333). Description: coprecipitation (coIP) with p75 from transfected HeLa cells.
Assay [4] shares this target. Description: coprecipitation from transfected HeLa cells.

Results are given in words; binding and its absence hold for the method and conditions named. Binding seen in cells or lysates may run through a third protein. Some binding calls cover weakened binding; strength is not graded here.

As for “full-length 55.11 protein (55.11-full) (from UniProt Q13200 11-899)”, the binding result in assay [1] and in assay [2] was “binds” in each case.
Regarding “FLAG-55.11 (residues 309-900 of 55.11 fused at the N terminus with the FLAG octapeptide) (from UniProt Q13200 318-899)”, the binding entry in assay [1] and in assay [2] was “binds” throughout.
For “E15 (p75IC-binding protein encoded by clone E15) (from UniProt Q9NQT4 1-235)”, the binding result in assay [3] and in assay [4] was “binds” in each case.
